From PMC10193013, “Nonstructural N- and C-tails of Dbp2 confer the protein full helicase activities” (The Journal of Biological Chemistry, 2023)
For some assays here: A negative result means that nothing was seen under these conditions. For some assays here: At least one verdict was read from the data and is not stated in words by the source. For some assays here: For at least one entry, the source does not settle the construct or the ends of the probe.

Sequences of proteins named here, by UniProt entry; tags and fusion partners are left off. Residues count along the entry.
UniProt P24783, whole entry Y78E: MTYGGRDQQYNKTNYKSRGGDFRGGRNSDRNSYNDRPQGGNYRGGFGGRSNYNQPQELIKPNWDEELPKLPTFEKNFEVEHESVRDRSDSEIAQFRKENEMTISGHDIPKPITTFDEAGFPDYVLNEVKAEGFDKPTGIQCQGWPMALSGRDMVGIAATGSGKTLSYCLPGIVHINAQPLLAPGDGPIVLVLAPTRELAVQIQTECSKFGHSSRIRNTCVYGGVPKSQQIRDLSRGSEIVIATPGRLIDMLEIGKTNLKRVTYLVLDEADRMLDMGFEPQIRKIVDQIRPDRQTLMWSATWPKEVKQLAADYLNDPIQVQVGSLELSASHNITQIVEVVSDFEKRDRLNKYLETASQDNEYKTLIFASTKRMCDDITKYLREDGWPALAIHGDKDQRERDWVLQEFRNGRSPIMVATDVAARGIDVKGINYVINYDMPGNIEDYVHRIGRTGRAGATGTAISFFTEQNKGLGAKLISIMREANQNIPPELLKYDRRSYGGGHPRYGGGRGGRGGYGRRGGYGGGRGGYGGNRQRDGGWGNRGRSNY
UniProt P24783, whole entry F77A/Y78A: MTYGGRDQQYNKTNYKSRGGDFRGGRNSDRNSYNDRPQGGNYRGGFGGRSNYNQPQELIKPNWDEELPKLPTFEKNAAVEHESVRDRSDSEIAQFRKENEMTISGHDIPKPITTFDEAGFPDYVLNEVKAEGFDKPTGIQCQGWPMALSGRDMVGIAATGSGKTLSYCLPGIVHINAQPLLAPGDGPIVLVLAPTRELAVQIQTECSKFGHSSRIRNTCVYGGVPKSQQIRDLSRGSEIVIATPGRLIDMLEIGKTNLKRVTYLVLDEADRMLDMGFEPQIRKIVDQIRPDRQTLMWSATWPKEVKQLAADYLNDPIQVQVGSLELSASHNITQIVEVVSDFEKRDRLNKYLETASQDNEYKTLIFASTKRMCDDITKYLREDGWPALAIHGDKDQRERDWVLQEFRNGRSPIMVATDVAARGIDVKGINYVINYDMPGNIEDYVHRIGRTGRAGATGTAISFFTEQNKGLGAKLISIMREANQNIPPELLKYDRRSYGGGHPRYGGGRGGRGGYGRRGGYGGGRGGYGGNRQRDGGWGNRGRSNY
UniProt P24783, whole entry E80A/H81A: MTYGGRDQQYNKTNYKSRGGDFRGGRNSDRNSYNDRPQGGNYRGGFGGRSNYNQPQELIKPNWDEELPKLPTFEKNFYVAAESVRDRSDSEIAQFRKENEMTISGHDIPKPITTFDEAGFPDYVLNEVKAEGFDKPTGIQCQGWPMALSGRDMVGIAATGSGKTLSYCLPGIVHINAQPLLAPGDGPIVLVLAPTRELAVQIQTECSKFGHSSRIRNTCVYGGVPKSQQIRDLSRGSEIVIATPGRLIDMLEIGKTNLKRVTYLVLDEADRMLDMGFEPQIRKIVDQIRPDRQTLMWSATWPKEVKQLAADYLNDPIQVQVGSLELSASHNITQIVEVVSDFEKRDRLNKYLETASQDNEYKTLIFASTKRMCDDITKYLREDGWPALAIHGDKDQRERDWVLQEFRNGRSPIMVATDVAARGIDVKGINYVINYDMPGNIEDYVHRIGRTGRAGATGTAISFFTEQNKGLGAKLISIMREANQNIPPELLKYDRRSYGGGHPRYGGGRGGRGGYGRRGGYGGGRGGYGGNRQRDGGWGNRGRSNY
UniProt P24783, whole entry Y78A: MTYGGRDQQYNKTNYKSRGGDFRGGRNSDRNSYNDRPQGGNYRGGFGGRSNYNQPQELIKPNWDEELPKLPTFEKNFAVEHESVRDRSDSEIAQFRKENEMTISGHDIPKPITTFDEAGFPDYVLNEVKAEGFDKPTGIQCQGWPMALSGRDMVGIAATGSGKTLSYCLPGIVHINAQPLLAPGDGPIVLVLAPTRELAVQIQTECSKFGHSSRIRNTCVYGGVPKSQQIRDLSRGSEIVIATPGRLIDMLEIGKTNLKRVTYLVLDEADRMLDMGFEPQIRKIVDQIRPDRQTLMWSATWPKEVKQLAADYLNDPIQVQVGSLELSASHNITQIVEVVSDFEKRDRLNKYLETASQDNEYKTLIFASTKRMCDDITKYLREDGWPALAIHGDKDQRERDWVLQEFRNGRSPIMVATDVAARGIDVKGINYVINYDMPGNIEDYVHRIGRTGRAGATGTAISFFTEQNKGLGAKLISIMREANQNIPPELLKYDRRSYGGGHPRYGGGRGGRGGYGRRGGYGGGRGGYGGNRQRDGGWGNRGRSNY
UniProt P24783, whole entry F73A: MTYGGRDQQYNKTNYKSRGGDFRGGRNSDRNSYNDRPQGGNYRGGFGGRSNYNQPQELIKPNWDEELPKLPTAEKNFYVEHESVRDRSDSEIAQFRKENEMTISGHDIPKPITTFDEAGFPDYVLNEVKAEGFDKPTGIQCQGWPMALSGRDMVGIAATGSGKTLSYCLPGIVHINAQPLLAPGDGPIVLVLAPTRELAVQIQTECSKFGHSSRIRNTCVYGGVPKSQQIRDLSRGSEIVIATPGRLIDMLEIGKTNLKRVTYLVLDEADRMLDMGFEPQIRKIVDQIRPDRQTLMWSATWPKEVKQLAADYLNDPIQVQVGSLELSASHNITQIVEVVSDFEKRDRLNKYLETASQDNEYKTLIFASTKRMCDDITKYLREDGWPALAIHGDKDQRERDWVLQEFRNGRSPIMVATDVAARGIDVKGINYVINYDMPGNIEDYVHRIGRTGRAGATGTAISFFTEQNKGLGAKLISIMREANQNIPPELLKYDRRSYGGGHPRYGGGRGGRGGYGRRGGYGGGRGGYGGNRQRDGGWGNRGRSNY
UniProt P24783, 53-546: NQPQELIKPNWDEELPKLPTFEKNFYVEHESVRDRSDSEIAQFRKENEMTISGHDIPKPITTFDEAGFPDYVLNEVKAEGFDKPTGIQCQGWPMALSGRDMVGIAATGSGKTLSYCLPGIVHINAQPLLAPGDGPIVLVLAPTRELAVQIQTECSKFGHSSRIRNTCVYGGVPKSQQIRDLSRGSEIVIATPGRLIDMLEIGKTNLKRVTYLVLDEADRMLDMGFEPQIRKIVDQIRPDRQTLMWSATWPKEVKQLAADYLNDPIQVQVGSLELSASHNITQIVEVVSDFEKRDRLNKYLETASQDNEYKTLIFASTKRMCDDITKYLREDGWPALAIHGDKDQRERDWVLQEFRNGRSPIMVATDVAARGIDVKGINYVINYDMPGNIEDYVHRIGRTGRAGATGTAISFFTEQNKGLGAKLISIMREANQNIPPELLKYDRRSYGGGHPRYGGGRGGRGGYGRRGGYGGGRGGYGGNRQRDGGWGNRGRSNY
UniProt P24783, 1-496: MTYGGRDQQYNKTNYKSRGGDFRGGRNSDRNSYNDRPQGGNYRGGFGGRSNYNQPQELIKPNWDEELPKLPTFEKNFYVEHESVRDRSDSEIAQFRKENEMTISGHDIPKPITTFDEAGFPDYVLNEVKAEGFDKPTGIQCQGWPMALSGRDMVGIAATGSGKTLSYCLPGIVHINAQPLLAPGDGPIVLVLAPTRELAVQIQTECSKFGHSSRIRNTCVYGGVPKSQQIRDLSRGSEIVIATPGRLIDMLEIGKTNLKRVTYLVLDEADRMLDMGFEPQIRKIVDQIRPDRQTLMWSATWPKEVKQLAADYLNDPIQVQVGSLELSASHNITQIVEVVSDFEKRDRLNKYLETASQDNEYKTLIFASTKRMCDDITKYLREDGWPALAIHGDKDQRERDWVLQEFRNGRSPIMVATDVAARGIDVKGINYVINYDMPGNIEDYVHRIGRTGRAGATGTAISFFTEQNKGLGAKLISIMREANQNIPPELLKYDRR

Experiments:
[1] = target: Dbp2 Y78E (Saccharomyces cerevisiae) (UniProt P24783); assay: fluorescence anisotropy; details: Anisotropy: 25 mM Tris-HCl pH 7.5, 20 mM NaCl/30 mM KCl, 2 mM MgCl2, 1 mM DTT, 5 nM labelled nucleic acid, 25 C, 5 min; recombinant protein; residues 1-546; DNA:RNA hybrid
[2] = target: Dbp2 F77A/Y78A (Saccharomyces cerevisiae) (UniProt P24783); assay: fluorescence anisotropy; details: Anisotropy: 25 mM Tris-HCl pH 7.5, 20 mM NaCl/30 mM KCl, 2 mM MgCl2, 1 mM DTT, 5 nM labelled nucleic acid, 25 C, 5 min; recombinant protein; residues 1-546; DNA:RNA hybrid
[3] = target: Dbp2 E80A/H81A (Saccharomyces cerevisiae) (UniProt P24783); assay: fluorescence anisotropy; details: Anisotropy: 25 mM Tris-HCl pH 7.5, 20 mM NaCl/30 mM KCl, 2 mM MgCl2, 1 mM DTT, 5 nM labelled nucleic acid, 25 C, 5 min; recombinant protein; residues 1-546; DNA:RNA hybrid
[4] = target: Dbp2 Y78A (Saccharomyces cerevisiae) (UniProt P24783); assay: fluorescence anisotropy; details: Anisotropy: 25 mM Tris-HCl pH 7.5, 20 mM NaCl/30 mM KCl, 2 mM MgCl2, 1 mM DTT, 5 nM labelled nucleic acid, 25 C, 5 min; recombinant protein; residues 1-546; DNA:RNA hybrid
[5] = target: Dbp2 WT (Saccharomyces cerevisiae) (UniProt P24783); assay: fluorescence anisotropy; details: Anisotropy: 25 mM Tris-HCl pH 7.5, 20 mM NaCl/30 mM KCl, 2 mM MgCl2, 1 mM DTT, 5 nM labelled nucleic acid, 25 C, 5 min; recombinant protein; residues 1-546; protein details: His6-MBP removed by TEV; DNA:RNA hybrid
[6] = target: Dbp2 F73A (Saccharomyces cerevisiae) (UniProt P24783); assay: fluorescence anisotropy; details: Anisotropy: 25 mM Tris-HCl pH 7.5, 20 mM NaCl/30 mM KCl, 2 mM MgCl2, 1 mM DTT, 5 nM labelled nucleic acid, 25 C, 5 min; recombinant protein; residues 1-546; DNA:RNA hybrid
[7] = target: Dbp2 53-546 (Saccharomyces cerevisiae) (UniProt P24783); assay: EMSA; details: two bands; EMSA: 25 mM Tris-HCl pH 7.5, 30 mM KCl, 2 mM MgCl2; recombinant protein; residues 53-546; protein details: His6-MBP removed by TEV; label: 3' FAM
[8] = target: Dbp2 1-496 (Saccharomyces cerevisiae) (UniProt P24783); assay: EMSA; details: single band; EMSA: 25 mM Tris-HCl pH 7.5, 30 mM KCl, 2 mM MgCl2; recombinant protein; residues 1-496; protein details: His6-MBP removed by TEV; label: 3' FAM

Sequence | Kd [1] [nM] | binding result [2] | Kd [3] [nM] | binding result [4] | Kd [5] [nM] | binding result [6] | binding result [7] | binding result [8]
CGTCGAGCAGAG / UUUUUUUUUUCUCUGCUCGACG [R/D-5'Oh] | 281 | no binding | 116 | no binding | 72.3 | no binding | – | –
GGGUUAGGGUUAGGGUUAGGG [R-G4Tel] | – | – | – | – | – | – | binds | binds
GGGUUAGGGUUAGGGUUAGGGUUUUUUUUUUUU [5'R-G4Tel] | – | – | – | – | – | – | binds | binds
UUUUUUUUUUCUCUGCUCGACG [R-S22] | – | – | – | – | – | – | binds | binds
UUUUUUUUUUUUGGGUUAGGGUUAGGGUUAGGG [3'R-G4Tel] | – | – | – | – | – | – | binds | binds
